The values that follow come from article PMC9404778.

For at least one entry, the source does not settle the construct or the ends of the probe. For part of these data: A negative result means that nothing was seen under these conditions.

The target in data set [1] is T1, His6-DasR (Streptomyces roseosporus NRRL11379) (UniProt A0A919BEL1). Nature of the data set: EMSA. To be noted: EMSA: 20 uL, 1 ug poly[d(I-C)], 0.15 nM DIG-labeled probe, Roche DIG gel shift kit 2nd gen, pH and temperature not stated, recombinant protein, protein details: His6 (pET-28a), probe letters rebuilt from the primers and the genome.
The target of data set [2] is T1, His6-DasR (Streptomyces roseosporus NRRL11379). As to the kind of experiment: competition with a labelled probe. To be noted: 4.5 uM DasR, EMSA: 20 uL, 1 ug poly[d(I-C)], 0.15 nM DIG-labeled probe, Roche DIG gel shift kit 2nd gen, pH and temperature not stated, recombinant protein, protein details: His6 (pET-28a), probe letters rebuilt from the primers and the genome. (In EMSA bound probe runs differently from free probe, usually more slowly.)

The target is the same in data set [3]. Nature of the data set: DNase I footprinting. To be noted: recombinant protein; protein details: His6 (pET-28a); label: 5' FAM; probe letters rebuilt from the primers and the genome.
Where [4] appears, read: 1 and 4.5 uM DasR, label: 3' DIG.

With “ATGGCCGGACAACCCACCGCCCACCAGGCAGGAACGGACCGCGCGGTACGCTTTCACCCGACGCGGACGGGCCACGTTGGCGAAGGGCACTTCCCTGTGCGCTTCGCAGGTGAAACGCTTCGTGATCGAACGCTTCACGCCACGTTTCCTTATCGACATTGAGCTGGTAGGGGAAGGTGTCACGGCGAGACCACGCGACGCAGTAGATTCGATCTTGAAAATCGGGGGCTGGGGAACCGTGCGAAACCGAGGGGAAACGTGCAGGAGCGGCAGGCCCGTAAGGACCGGAAAGACGCGAACACCGAGGGGGGCTTAGCGTCATGAGCCAG (double strand) [adpAp EMSA probe]”, the binding result in data set [1] (1-4.5 uM DasR, label: 3' DIG) was “binds”.
With “GGCGTGGAACATACTGGCGATCAAGTCGCACAGGAACCAACAGGCACACCAACCACAGGCGTTACAGGGGGGGTTGGTGTTTCGTCCATATCAAGTGGTTTGGTCCGCCGAAGCGGTTGGACCTCACATGACGGCAACAGGGCATTCGCACATGCCTGATGACGGGACGGCACACCTCACGCAGCGGCGACCGGTCGCAAGCCGGACGCGGAATGACTCCCTGCCTTACAGGTATGCGAGCGCGGATGCGTCGTTCGACCGGAGTCAGGAGGGGGAGTGCCTGCCGTGAGTGAGAGCCGCTGTGC (double strand) [dptEp EMSA probe]”, the binding result in data set [1] (1-4.5 uM DasR, label: 3' DIG) is recorded as “binds”; in data set [2] (~100-fold unlabeled dptEp abolished shift, label: 3' DIG), “binds”.
Turning to “TTGATGACCTCGACCATGTGCACCGGGATACGGATGGTGCGGGCCTGGTCGGCCATCGCGCGGGTGATCGCCTGACGGATCCACCAGGTGGCGTACGTGGAGAACTTGTAGCCCTTGG (double strand) [hrdB probe]”, the binding result in data set [1] (4.5 uM DasR, label: 3' DIG (unlabeled as competitor)) was “no binding”; in data set [2] (~100-fold unlabeled hrdB vs dptEp probe, label: 3' DIG (unlabeled as competitor)), “no binding”.
Regarding “CGTGCAGGAAGGTGTTCGCACACTTCAGCCCCTGGCCGATTTTCGGTCAACGGTAGCGAAATGAATCGATCAGGATCGATAGGAAAGCAAAGCTCAACGAGCTCCGGAGAGGCCCCGCTCCCGATCCGAGAGCCCTCCCGCTAGCTCGCATTCCCGGCAAAGCGGGTAGCGCCTTCCTGGATCGGGGGCGCCTGCGATAGAACAGACGACATCCACGAGAAGTCGAAGAGAAGTCGAACGACACAGTTCGATCAGAAGGAAAAGGAGAGGCCGGGATGGCACTCGCATCGGAACGG (double strand) [dptR2p EMSA probe]”, in data set [1] (setting [4]), the binding result is on record as “no binding”.
As to “AGGCGCTGCGGATCGATGCGGGGTTCCGCGCTGAGCCTCAACGCGGCGGGCCAGAGCCTCGGCGTCTTCGCCGGCGCCGCCCTCGGCGGAGCGGGACTCGGGCTCGCGGGGTACCCGGGGATCGCCGCCGCGTTCGGGCTGCTCGTCGCCGTGGCCGTGGTGGCCGGGCTCCTGGTGCTGCGCTCCGAGGACGAGATCCCCGGTTCGGCGTAGCCGAAGCCGACGGGGCGCCCGCCCAAGGTCGCGGGCACCCCACGGACGCACATCCACCGTTCATCAACGCTCCGAAACCGGAAGGCCGATCCACATGTCACCGCCCGCGCCACCCGAGGCGCTGCAACGTCCCGCGCCCACCGCGCAAGAGCCGGTTCGGACCG (double strand) [dptP-M EMSA probe]”, the binding result in data set [1] (setting [4]) is on record as “no binding”.
With “GCGCGGTCAACAAGATTCTTCGCGATTTCTTCCGAACGAGCTGAAAGGCACGACGACCTTGTCCAGTACCGGCAGAGAGGGGCCCGTCGTGACCGGCGAAACCCGCACCACCACCTACCTCCCCGGCATGACCGTGCACGACTACCACGTGACCGTCAAGG (double strand) [dptIp EMSA probe]”, the binding result in data set [1] (setting [4]) was “no binding”.
Consider “ACCCGCCTTCCCTGACCCGGACACGCCATGAGGCCGCGGCCGCGAGGGAGCGCACCGGCGCGGTTGTCAGAGAGCGGTTGTGCGCCCGGCGTGACCGGATACAGCACACACAACCGATGGTTTTCAGCCAACTTCACCCGGGGGGTGACCCCTTCGCGGGATGGCCGGACAACCCACCGCCCACCAGGCAGGAACGGACCGCGCGGTACGCTTTCACCCGACGCGGACGGGCCACGTTGGCGAAGGGCACTTCCCTGTGCGCTTCGCAGGTGAAACGCTTCGTGATCGAACGCTTCACGCCACGTTTCCTTATCGACATTGAGCTGGTAGGGGAAGGTGTCACGGCGAGACCACGCGACGCAGTAGATTCGATCTTGAAAATCGGGGGCTGGGGAACCGTGCGAAACCGAGGGGAAACGTGCAGGAGCGGCAGGCCCGTAAGGACCGGAAAGACGCGAACACCGAGGGGGGCTTAGCGTCATGAGCCAGG (double strand) [adpAp footprinting fragment]”, for which the binding result in data set [3] is on record as “binds”.
With “GTCCATCTCTCGCGGATCCCCTCAGGTGCGGTCGGCCAACTGGGGCATCAGTGCCTGGACGAACTCGTTGAGTGTGGGGACGCTCCACAGCAGCTCCGGGTCGACCTCGATCCCGTAGCGGTCCTCGACCTGCGCGCAGAGGGCAACTCCGGAGACGGAGTCGAGGCCATGGTCGGTCAGGGGTGCGTCACCGGCGATCCGGTCGGGTGTCTCGTTCACGAACTCGGCGATCTGTCCGGTGATCCACGCGGTGACCTCG (double strand) [dptAp EMSA probe]”, in data set [1] (setting [4]), the binding result is “no binding”.
As for “GAAGAGGCGGAGGATGCGGCGCACCTCGGCGGGCCGCCGGTCGGCGGCGGGGCGGGCATCGGGCGGGGGCGTCCACGTGGGTTCGTCGGGTTTCATGGGCTCCTTCGTCGGGCGTGAGGCGGGGCCGGGCAGTCCCGGTCCCGCACAGTGAGAGCCTAGCTCATTGTTACCTATGCTCACAATGAACAAGGTCCTGATATTGTTCCCGTATGGACGCCCCGGATTCCCCCGACTCCCCTGATTCCCCCGAGTCCCGGGACTCTCGCGATTCCCGGGA (double strand) [dptR3p EMSA probe]”, the binding result in data set [1] (setting [4]) is “no binding”.
On to “CGCACCGGACGCCCTGACCCCTCCCCACCACCTGCCCAGTGTGACGTTTGCGCAGATGAGAACGTGCGTAAACGCCGCATACGCAAAGATCGTCCCTGCCGGGACCCATTGACGTTCGCAGGGGCGTGGAACATACTGGCGATCAAGTCGCACAGGAACCAACAGGCACACCAACCACAGGCGTTACAGGGGGGGTTGGTGTTTCGTCCATATCAAGTGGTTTGGTCCGCCGAAGCGGTTGGACCTCACATGACGGCAACAGGGCATTCGCACATGCCTGATGACGGGACGGCACACCTCACGCAGCGGCGACCGGTCGCAAGCCGGACGCGGAATGACTCCCTGCCTTACAGGTATGCGAGCGCGGATGCGTCGTTCGACCGGAGTCAGGAGGGGGAGTGCCTGCCGTGAGTGAGAGCCGCTGTGCC (double strand) [dptEp footprinting fragment]”, for which the binding result in data set [3] is “binds”.
